# PubChem BioAssay AID602196 | INSERM – 2012
# Purpose: 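Genes whose knock-down alters cisplatin killing of lung cancer cells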
# Cell system: human A549 lung cancer cells
# Reagent: siRNA pair against human genes
# Duration: 48 h transfection before cisplatin; time from cisplatin to read-out not stated
# Challenge: cisplatin at a dose killing half of control-siRNA cells; exact dose and duration not given
# Measured: 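Shift in cisplatin death relative to control siRNA, from -50 (all cells die) to +50 (no cells die); siRNAs harmful on their own scored 0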
# Reading the numbers: two-siRNA summed score (-2 to +2): higher = both siRNAs protect from cisplatin killing; -2 means both sensitise; mean protection from cisplatin (shift in death) and protection from cisplatin (shift in death), siRNA C and protection from cisplatin (shift in death), siRNA D: higher = protection from cisplatin killing
# Call rule: 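Each siRNA scores 0 if harmful alone by LDH or WST-1, otherwise +1 if it reduces and -1 if it increases cisplatin killing; a gene is active when both siRNAs agree (sum +2 or -2)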
# Meaning of the calls: active = both siRNAs shift cisplatin killing the same way; inactive = no consistent shift, or siRNA harmful alone
# The deposit covers about 23,000 reagents; shown is an unselected part. Of all reagents, 455 (2%) were called active. 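Active includes both protection and sensitisation; some change values fall well beyond the stated -50 to +50 range.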 Reagent sequences are not shown. Not stated in the record: the amount of reagent.
gene,two-siRNA summed score (-2 to +2),mean protection from cisplatin (shift in death) (%),"protection from cisplatin (shift in death), siRNA C (%)","protection from cisplatin (shift in death), siRNA D (%)",call
CD72,0,14.6,-4.2,33.5,inactive
TIFA,0,-10.1,9.3,-29.5,inactive
CDK17,1,7.5,18.9,-3.8,inactive
USP9X,-1,-13.2,-3.5,-22.8,inactive
POU3F4,-1,-15.1,-13.3,-17,inactive
LOC400092,0,-2.4,2,-6.8,inactive
UBE2Q2,0,1.9,6.9,-3.1,inactive
UBQLN1,0,7.4,-1.1,15.9,inactive
CHPT1,0,-1.8,9.7,-13.4,inactive
KDM1A,1,3.3,-15.7,22.3,inactive
NYAP1,-1,-2.6,-8.7,3.6,inactive
LOC441499,-1,-5.8,0.5,-12,inactive
LOC441626,0,-4,2.3,-10.3,inactive
AP1S3,0,7.2,3.4,11,inactive
EEFSEC,0,-2,3.2,-7.1,inactive
LOC388885,0,17.1,17,17.2,inactive
ACER2,1,8.5,17.8,-0.8,inactive
LOC391045,0,-0.4,-3.2,2.4,inactive
DNM1P41,2,20.8,21.1,20.4,active
PLA2G3,0,17.7,13.1,22.3,inactive
PCDHB14,0,-3.9,1.6,-9.3,inactive
FGFR1OP2,-1,-18.8,-13,-24.6,inactive
RINL,0,2,10.1,-6.2,inactive

Not a retest: entries from further up.
gene,two-siRNA summed score (-2 to +2),mean protection from cisplatin (shift in death) (%),"protection from cisplatin (shift in death), siRNA C (%)","protection from cisplatin (shift in death), siRNA D (%)",call
CDK17,1,7.5,18.9,-3.8,inactive
USP9X,-1,-13.2,-3.5,-22.8,inactive
POU3F4,-1,-15.1,-13.3,-17,inactive
